The results are deposited in PubChem (AID504749; NCATS, 2011).

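A panel of P. falciparum strains inside erythrocytes is exposed to compounds for three days, then a DNA-binding dye reports the amount of parasite DNA.
Each compound was titrated across a series from about 0.000037 to 29 µM.
The number is the fitted AC50, the concentration giving a half-maximal change in signal; a lower value means higher potency, whether the curve shows a decrease or an increase.
Calls follow the curve class and fit quality: every row here is inconclusive, covering signal-raising curves and weak, poorly fitted, partial or highest-dose-only inhibition curves.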

Values are in nM.
All entries here are filed as inconclusive.
These entries are mostly ones the record files as inconclusive; other results of the assay are not listed here.
A potency from a partial, single-point or poor curve is only a rough figure.

| # | SMILES | condition | Potency (nM) | curve |
|---|---|---|---|---|
| 1 | `CC(=O)OCC(=O)[C@@]12OC3(CCCC3)OC1CC1C3CCC4=CC(=O)C=C[C@@]4(C)[C@]3(F)C(O)C[C@]12C` (some centres unmarked) | CP265 | 11220 | inhibitor, single point |
| 2 | `CC(=O)OCC(=O)[C@@]12OC3(CCCC3)OC1CC1C3CCC4=CC(=O)C=C[C@@]4(C)[C@]3(F)C(O)C[C@]12C` (some centres unmarked) | CP203 | 13459 | inhibitor, single point |
| 3 | `CC(=O)OCC(=O)[C@@]12OC3(CCCC3)OC1CC1C3CCC4=CC(=O)C=C[C@@]4(C)[C@]3(F)C(O)C[C@]12C` (some centres unmarked) | CP252 | 12589 | inhibitor, single point |
| 4 | `O=C1CSC2(CCN(CCCN3c4ccccc4Sc4ccc(Cl)cc43)CC2)N1` | AA1029 | 10000 | inhibitor, single point |
| 5 | `O=C1CSC2(CCN(CCCN3c4ccccc4Sc4ccc(Cl)cc43)CC2)N1` | CP315 | 19011 | inhibitor, single point |
| 6 | `O=C1CSC2(CCN(CCCN3c4ccccc4Sc4ccc(Cl)cc43)CC2)N1` | PC49 | 10000 | inhibitor, single point |
| 7 | `O=C1CSC2(CCN(CCCN3c4ccccc4Sc4ccc(Cl)cc43)CC2)N1` | PC15 | 11220 | inhibitor, single point |
| 8 | `O=C1CSC2(CCN(CCCN3c4ccccc4Sc4ccc(Cl)cc43)CC2)N1` | TAB113 | 11220 | inhibitor, single point |
| 9 | `O=C1CSC2(CCN(CCCN3c4ccccc4Sc4ccc(Cl)cc43)CC2)N1` | CP266 | 15101 | inhibitor, single point |
| 10 | `O=C1CSC2(CCN(CCCN3c4ccccc4Sc4ccc(Cl)cc43)CC2)N1` | CP217 | 12589 | inhibitor, single point |
| 11 | `O=C1CSC2(CCN(CCCN3c4ccccc4Sc4ccc(Cl)cc43)CC2)N1` | N140 | 8912 | inhibitor, partial curve |
| 12 | `O=C1CSC2(CCN(CCCN3c4ccccc4Sc4ccc(Cl)cc43)CC2)N1` | PC26 | 16944 | inhibitor, single point |
| 13 | `O=C1CSC2(CCN(CCCN3c4ccccc4Sc4ccc(Cl)cc43)CC2)N1` | CP269 | 16944 | inhibitor, single point |
| 14 | `O=C1CSC2(CCN(CCCN3c4ccccc4Sc4ccc(Cl)cc43)CC2)N1` | ATS95 | 8912 | inhibitor, single point |
| 15 | `O=C1CSC2(CCN(CCCN3c4ccccc4Sc4ccc(Cl)cc43)CC2)N1` | CP335 | 10690 | inhibitor, single point |
| 16 | `O=C1CSC2(CCN(CCCN3c4ccccc4Sc4ccc(Cl)cc43)CC2)N1` | CP252 | 17782 | inhibitor, single point |
| 17 | `O=C1CSC2(CCN(CCCN3c4ccccc4Sc4ccc(Cl)cc43)CC2)N1` | AS120 | 12589 | inhibitor, single point |
| 18 | `O=C1CSC2(CCN(CCCN3c4ccccc4Sc4ccc(Cl)cc43)CC2)N1` | CP191 | 17782 | inhibitor, single point |
| 19 | `O=C1CSC2(CCN(CCCN3c4ccccc4Sc4ccc(Cl)cc43)CC2)N1` | CP286 | 11220 | inhibitor, single point |
| 20 | `O=C1CSC2(CCN(CCCN3c4ccccc4Sc4ccc(Cl)cc43)CC2)N1` | CP325 | 19011 | inhibitor, single point |
| 21 | `O=C1CSC2(CCN(CCCN3c4ccccc4Sc4ccc(Cl)cc43)CC2)N1` | CP237 | 10000 | inhibitor, single point |
| 22 | `O=C1CSC2(CCN(CCCN3c4ccccc4Sc4ccc(Cl)cc43)CC2)N1` | CP203 | 16944 | inhibitor, single point |
| 23 | `O=C1CSC2(CCN(CCCN3c4ccccc4Sc4ccc(Cl)cc43)CC2)N1` | PAD | 11220 | inhibitor, partial curve |
| 24 | `O=C1CSC2(CCN(CCCN3c4ccccc4Sc4ccc(Cl)cc43)CC2)N1` | CP268 | 19011 | inhibitor, single point |
| 25 | `O=C1CSC2(CCN(CCCN3c4ccccc4Sc4ccc(Cl)cc43)CC2)N1` | CP215 | 19011 | inhibitor, single point |
| 26 | `O=C1CSC2(CCN(CCCN3c4ccccc4Sc4ccc(Cl)cc43)CC2)N1` | HB3 | 10000 | inhibitor, single point |
| 27 | `O=C1CSC2(CCN(CCCN3c4ccccc4Sc4ccc(Cl)cc43)CC2)N1` | CP211 | 16944 | inhibitor, single point |
| 28 | `O=C1CSC2(CCN(CCCN3c4ccccc4Sc4ccc(Cl)cc43)CC2)N1` | SC27B | 14125 | inhibitor, single point |

Once more, the final 2:

| SMILES | condition | Potency (nM) | curve |
|---|---|---|---|
| `O=C1CSC2(CCN(CCCN3c4ccccc4Sc4ccc(Cl)cc43)CC2)N1` | CP211 | 16944 | inhibitor, single point |
| `O=C1CSC2(CCN(CCCN3c4ccccc4Sc4ccc(Cl)cc43)CC2)N1` | SC27B | 14125 | inhibitor, single point |